## Percent effect of library compounds

From ChEMBL document CHEMBL3988442, “University of Dundee, Small-Polar-MMV Screening Library” (2021).

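Whole-parasite assay of Trypanosoma brucei over 72 hours; the read-out is not stated. Compounds at 10 µM. Higher reads as stronger inhibition (inferred: compounds with an IC50 in retests scored well above the rest). Values scatter widely below zero; nearly all retest evidence comes from the higher of the two concentrations used. Of about 2,700 compounds tested this way, about 14 (0.51%) reached 50% or more in at least one test.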

Results are given as percent effect. The controls that fix the scale are not given in the record; negative values are as filed. This is an unselected part of the compounds tested.

| # | SMILES | Percent Effect |
|---|---|---|
| 1 | `COc1c(C)cnc(CN2CCC(N(C)S(C)(=O)=O)CC2)c1C` | -44.94 |
| 2 | `Cc1cc(C)n(CC2CN(c3cnc4ccccc4n3)CCO2)n1` (configuration not stated) | -7.753 |
| 3 | `CC(=O)Nc1nc(C(=O)N2CCCCC2Cn2cccn2)cs1` (configuration not stated) | -50.32 |
| 4 | `Cc1ccc(C)c(S(=O)(=O)CCN2CCc3c(ncn3C)C2)c1` | 2.439 |
| 5 | `Cc1cc(C)c(CNC(=O)NCCC2CCCO2)c(=O)[nH]1` (configuration not stated) | -59.75 |
| 6 | `CCn1nc2c(cc1=O)CN(Cc1nc(-c3ccco3)no1)CC2` | -34.71 |
| 7 | `Cc1cnn(CC2CCCCN2C(=O)CC(F)(F)F)c1` (configuration not stated) | -12.09 |
| 8 | `Cc1cnn(CC2CN(CC(=O)NCc3ccc(C)s3)CCO2)c1` (configuration not stated) | -7.52 |
| 9 | `CCc1ccsc1C(=O)N1CCN(CCN2C(=O)CCC2=O)CC1` | -37.5 |
| 10 | `Cc1ncc(CN2CCC(N(C)Cc3noc(C4CC4)n3)C2)s1` (configuration not stated) | -20.3 |
| 11 | `COc1ccc(Cl)cc1CC(=O)N1CCN(CC(C)(C)O)CC1` | -36.61 |
| 12 | `CC(=O)NC1CCCN(C(=O)NCCOc2ccc3c(c2)OCO3)C1` (configuration not stated) | -30.45 |
| 13 | `COc1ccnc(N2CCN(C(=O)Cc3ccsc3)CC2)n1` | -53.48 |
| 14 | `CCN(CC)Cc1ccc(C(=O)N2CCCC2Cn2cccn2)cc1` (configuration not stated) | -13.25 |
| 15 | `COCCS(=O)(=O)Nc1ccc(-n2cncn2)c(F)c1` | -25.23 |
| 16 | `Fc1ccc(-c2nnc(CN3CCCC3Cn3cccn3)o2)cc1` (configuration not stated) | -30.37 |
| 17 | `Cc1cc(C)n(CC2CCCN2CCS(C)(=O)=O)n1` (configuration not stated) | -62.75 |
| 18 | `CC(NC(=O)NCCn1ccnc1)c1ccc2c(c1)CCC(=O)N2` (configuration not stated) | -31.36 |
| 19 | `CC(C)c1nc(CN2CCCC2c2cnn(C)c2)cs1` (configuration not stated) | -7.544 |
| 20 | `Cc1cccc(C)c1OCCNC(=O)CN1CCN(C)CC1C` (configuration not stated) | -96.07 |
| 21 | `Cc1ccc(-c2nc(CN3CCOC(CN(C)C)C3)co2)cc1` (configuration not stated) | 5.738 |
| 22 | `CC(=O)NCc1ccc(C(=O)N2CCCC2c2cnn(C)c2)cc1` (configuration not stated) | -32.62 |
| 23 | `Cc1cc(CN(C)C(=O)c2ccc(OC(C)C)nc2)no1` | -14.92 |
| 24 | `COc1ncccc1NC(=O)N(C1CC1)C(C)C(C)C` (configuration not stated) | -35.53 |
| 25 | `Cc1nc(C)n(CC2CCCN(CCC(=O)N3CCOCC3)C2)n1` (configuration not stated) | -48.53 |
| 26 | `Cc1cc(C)c(CNC(=O)N2CCN(c3ccncc3)CC2)c(=O)[nH]1` | -71.88 |
| 27 | `Cc1ccccc1C1(CNC(=O)CCN2C(=O)CCC2=O)CC1` | -23.18 |
| 28 | `CS(=O)(=O)CCC(=O)Nc1cc(F)ccc1OCC1CCCO1` (configuration not stated) | -49.4 |
| 29 | `Cc1ccc(CCNC(=O)Nc2cc(C(F)(F)F)c[nH]c2=O)o1` | -27.71 |
| 30 | `O=C(CCOCC(F)(F)F)N1CCCC(n2ccnc2)C1` (configuration not stated) | -22.11 |
| 31 | `CN(C)c1ncccc1CNS(=O)(=O)c1cc(F)ccc1F` | -33.91 |
| 32 | `CNC(=O)COc1ccc(CNCc2c(C)nn(C)c2N(C)C)cc1` | -47.09 |
| 33 | `CC(Cn1cccn1)NC(=O)NCCc1cccs1` (configuration not stated) | -6.364 |
| 34 | `CCc1nc(C2CCCN(C(=O)c3c(C)noc3C)C2)no1` (configuration not stated) | -50.75 |
| 35 | `O=C(CN1CCCC(Cn2cncn2)C1)NCCCc1ccccc1` (configuration not stated) | -26.88 |
| 36 | `COc1ccc(C(=O)NC(CC(=O)O)c2cccs2)c(OC)c1` (configuration not stated) | -17.2 |
| 37 | `NC(=O)CN1CCCN(C(=O)Cc2ccc3c(c2)OCCO3)CC1` | -35.64 |
| 38 | `CNc1nc(CNC(=O)Nc2cccc(CN(C)C)c2)cs1` | -33.25 |
| 39 | `NC(=O)C1CCN(Cc2csc(-c3ncccn3)n2)CC1` | -11.34 |
| 40 | `O=C(Nc1ccc(CCN2CCOCC2)cc1)C1CC1` | -83.87 |
| 41 | `OCCn1cc(CN2CCN(CCOc3ccc(F)cc3)CC2)cn1` | -32.81 |
| 42 | `Cc1nn(C)c(C)c1C1CCCN1C(=O)c1ccc(N(C)C)nc1` (configuration not stated) | -90.9 |

For reference, 3 entries once more:

SMILES,Percent Effect
CN(C)c1ncccc1CNS(=O)(=O)c1cc(F)ccc1F,-33.91
Cc1ccc(C)c(S(=O)(=O)CCN2CCc3c(ncn3C)C2)c1,2.439
Fc1ccc(-c2nnc(CN3CCCC3Cn3cccn3)o2)cc1 (configuration not stated),-30.37